This note sets out measurements from article PMC3623771.

Amino acid sequences for entries named in this document (tags omitted).
UniProt Q03135: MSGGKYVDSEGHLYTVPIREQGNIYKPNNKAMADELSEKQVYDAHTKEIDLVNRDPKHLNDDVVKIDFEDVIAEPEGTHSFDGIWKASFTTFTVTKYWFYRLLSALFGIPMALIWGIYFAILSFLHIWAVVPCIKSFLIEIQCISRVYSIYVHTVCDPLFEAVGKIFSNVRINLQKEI

These are yes or no findings as the source states them, for the method shown. Binding seen in cells or lysates may run through a third protein. These calls come from enrichment with a bait or labelling near it, and not all partners need be listed.

In the test the target is Caveolin-1 (Cav1) (UniProt Q03135). As to the kind of experiment: affinity purification with mass spectrometry; AGS/Cav1 cells infected for 16 h with H. pylori G27 (MOI = 100) or uninfected, lysed at room temperature in MES-buffered 1% (v/v) Triton-X100; precipitation with rabbit polyclonal Cav1 antiserum, silver-stained band (~95 kDa) analysed by MALDI-MS.

B1: p120 Rho GTPase-activating protein/deleted in liver cancer-1 (p120RhoGAP/DLC1), variant 4 (protein, UniProt Q96QB1-4 1-1017)
chain: MKLEISPHRKRSDDSDEDEPCAISGKWTFQRDSKRWSRLEEFDVFSPKQDLVPGSPDDSHPKDGPSPGGTLMDLSERQEVSSVRSLSSTGSLPSHAPPSEDAATPRTNSVISVCSSSNLAGNDDSFGSLPSPKELSSFSFSMKGHEKTAKSKTRSLLKRMESLKLKSSHHSKHKAPSKLGLIISGPILQEGMDEEKLKQLNCVEISALNGNRINVPMVRKRSVSNSTQTSSSSSQSETSSAVSTPSPVTRTRSLSACNKRVGMYLEGFDPFNQSTFNNVVEQNFKNRESYPEDTVFYIPEDHKPGTFPKALTNGSFSPSGNNGSVNWRTGSFHGPGHISLRRENSSDSPKELKRRNSSSSMSSRLSIYDNVPGSILYSSSGDLADLENEDIFPELDDILYHVKGMQRIVNQWSEKFSDEGDSDSALDSVSPCPSSPKQIHLDVDNDRTTPSDLDSTGNSLNEPEEPSEIPERRDSGVGASLTRSNRHRLRWHSFQSSHRPSLNSVSLQINCQSVAQMNLLQKYSLLKLTALLEKYTPSNKHGFSWAVPKFMKRIKVPDYKDRSVFGVPLTVNVQRTGQPLPQSIQQAMRYLRNHCLDQVGLFRKSGVKSRIQALRQMNEGAIDCVNYEGQSAYDVADMLKQYFRDLPEPLMTNKLSETFLQIYQYVPKDQRLQAIKAAIMLLPDENREVLQTLLYFLSDVTAAVKENQMTPTNLAVCLAPSLFHLNTLKRENSSPRVMQRKQSLGKPDQKDLNENLAATQGLAHMIAECKKLFQVPEEMSRCRNSYTEQELKPLTLEALGHLGNDDSADYQHFLQDCVDGLFKEVKEKFKGWVSYSTSEQAELSYKKVSEGPPLRLWRSVIEVPAVPEEILKRLLKEQHLWDVDLLDSKVIEILDSQTEIYQYVQNSMAPHPARDYVVLRTWRTNLPKGACALLLTSVDHDRAPVVGVRVNVLLSRYLIEPCGPGKSKLTYMCRVDLRGHMPEWYTKSFGHLCAAEVVKIRDSFSNQNTETKDTKSR
Turning to B1, the binding result was “binds”.
